Results are given in words; binding and its absence hold for the method and conditions named. Some results given as binding are weak or reduced against the parent protein; the word gives no strength.
Biological target: T1, KaiC-CI domain from T. elongatus (T. elongatus) (UniProt Q79V60)
T1 sequence: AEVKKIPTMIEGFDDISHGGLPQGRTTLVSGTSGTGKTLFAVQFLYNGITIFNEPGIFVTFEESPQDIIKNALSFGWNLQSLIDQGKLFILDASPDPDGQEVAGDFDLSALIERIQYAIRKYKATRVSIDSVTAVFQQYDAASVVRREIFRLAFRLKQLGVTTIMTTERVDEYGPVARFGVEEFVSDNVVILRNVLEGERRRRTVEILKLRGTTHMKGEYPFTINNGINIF
Assay: crystal structure

- binding: binds
B1: SasAtrx domain (crystallised with KaiC-CI from T. elongatus) (domain or fragment, UniProt Q8DMT2 17-107)
chain: LSLLLFVANRPGDEEETAAIQAHIQQLPSNFSFELKVVPIGEQPYLLEEYKLVATPALIKVRPEPRQTLAGRKLLQKVDYWWPRWQREVAL
